Assay results reported in PMC5984758.

Target: T1, YFP^N-NSN1 (Arabidopsis) (UniProt Q9M8Z5)
T1 sequence: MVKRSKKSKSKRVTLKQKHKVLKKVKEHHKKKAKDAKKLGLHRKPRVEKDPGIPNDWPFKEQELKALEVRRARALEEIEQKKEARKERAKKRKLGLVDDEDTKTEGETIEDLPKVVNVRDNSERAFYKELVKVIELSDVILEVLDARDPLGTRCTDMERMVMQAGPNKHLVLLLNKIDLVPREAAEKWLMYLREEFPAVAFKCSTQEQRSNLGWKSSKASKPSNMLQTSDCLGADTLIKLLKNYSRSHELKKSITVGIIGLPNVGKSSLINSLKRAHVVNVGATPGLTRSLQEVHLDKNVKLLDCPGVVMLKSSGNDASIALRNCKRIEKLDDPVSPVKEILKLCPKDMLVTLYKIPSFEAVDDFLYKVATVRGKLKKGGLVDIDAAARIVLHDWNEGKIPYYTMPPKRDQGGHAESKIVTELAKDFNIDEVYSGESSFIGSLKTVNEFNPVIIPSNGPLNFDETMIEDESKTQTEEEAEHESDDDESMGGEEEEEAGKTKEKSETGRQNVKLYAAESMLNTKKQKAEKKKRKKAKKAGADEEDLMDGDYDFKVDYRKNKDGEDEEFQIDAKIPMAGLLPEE
Assay: split reporter; BiFC in tobacco leaf epidermal cells, Agrobacterium-infiltration, confocal microscopy after 48 h; signal in nuclei (DAPI)

binding: binds
Substance: YFP^C-NAP1;1 (Arabidopsis)

These are yes or no findings as the source states them, for the method shown. Binding seen in cells or lysates may run through a third protein. Binding calls can cover weak binding; strength is not graded here. Tags and fused reporters may be left off the sequences shown.
